Measurements reported in PubChem BioAssay AID504795 (Drosophila RNAi Screening Center, 2011)
This is not the whole library: the list holds selected reagents. 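Every listed dsRNA shows some phenotype; how reagents were selected for listing is not stated.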 Reagents against one gene are numbered here. Names joined by + are all predicted targets of the reagent. Further read-outs or replicates are left out here. No sequences are given here.

Test: 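Fly genes whose loss alters neurite growth or neural cell form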 (primary screen)
Cells: primary Drosophila neurons and glia
Reagents: long dsRNA against Drosophila genes, 250 ng dsRNA per well
Duration: one week
Measured: 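Descriptive morphology terms assigned by visual inspection of live automated images of GFP-marked cells, taken one week after adding 250 ng dsRNA per well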

phenotype seen, replicate 1, by target gene and reagent
CG13743: #1 reduced axon outgrowth
CG4116: #1 abnormal cell clusters
plh: #1 axon bundles split apart
Brd7-9: #1 abnormal cell clusters
Lgr4: #1 too many neurite branches
CG30291: #1 weaker green signal
Kif3C: #1 abnormal cell clusters
Glut1: #1 axon bundles split apart
Dtg: #1 sheet-like cell extensions
Prosbeta1: #1 too many neurite branches
Icmt: #1 too many neurite branches
Pus1: #1 too many neurite branches
CG42245 + MEP-1: #1 sheet-like cell extensions
be: #1 too many neurite branches
CG11583: #1 axon bundles split apart
I-t: #1 reduced axon outgrowth
PRL-1: #1 too many neurite branches
Cpr76Bc: #1 abnormal cell clusters
CG1468: #1 too many neurite branches
CG14537: #1 axon bundles split apart
RpL11: #1 beaded; swollen axons
Sxl + CG14425 (retired record): #1 reduced axon outgrowth
Wdr33: #1 axon bundles split apart
Syn1: #1 axon bundles split apart
CG7650: #1 axon bundles split apart
CG1909: #1 too many neurite branches
CG1090: #1 axon bundles split apart
Drl-2: #1 reduced axon outgrowth; #2 abnormal cell clusters
sel: #1 axon bundles split apart
Rrp45: #1 too many neurite branches
CG14143: #1 too many neurite branches
CG15576: #1 sheet-like cell extensions
mRpL55: #1 too many neurite branches
CG9130 + CG9133: #1 too many neurite branches
CG14306 (retired record): #1 sheet-like cell extensions
Daxx: #1 too many neurite branches
D: #1 axon bundles split apart
Mcm5: #1 fewer cells
Vha68-1: #1 abnormal cell clusters
CG10650: #1 abnormal cell clusters
CG33998: #1 axon bundles split apart
CAH13: #1 sheet-like cell extensions
Irbp18: #1 sheet-like cell extensions
sns: #1 abnormal cell clusters
Atf6: #1 axon bundles split apart
Sap130: #1 axon bundles split apart
CG15073: #1 axon bundles split apart
meigo: #1 too many neurite branches
CG18814: #1 reduced axon outgrowth
CG3592: #1 abnormal cell clusters
Cyp12a4: #1 sheet-like cell extensions
rush: #1 too many neurite branches
Sgs5bis: #1 abnormal cell clusters
RpS13: #1 axon bundles split apart
Ddr: #1 abnormal cell clusters; #2 axon bundles split apart
TSG101: #1 sheet-like cell extensions
Src42A: #1 too many neurite branches
ed: #1 axon bundles split apart
Mlp60A: #1 abnormal cell clusters
sta: #1 too many neurite branches
RapGAP1: #1 too many neurite branches
eIF3f1: #1 too many neurite branches
CG34136: #1 reduced axon outgrowth
CG4984 + CG4975: #1 axon bundles split apart
St2: #1 abnormal cell clusters
mRpL52: #1 abnormal cell clusters
Mp20: #1 sheet-like cell extensions
CG16953: #1 fewer cells
hoka: #1 axon bundles split apart
Ir51b: #1 axon bundles split apart
CG18234: #1 axon bundles split apart
mex1: #1 cell fragments present
